Earlier results in US20200069758A1, “COMPOSITION FOR USE IN THE PREVENTIVE AND/OR CURATIVE TREATMENT OF NON-ALCOHOLIC FATTY LIVER DISEASE” (NORMAPHAR SA, priority 2018, published 2020).
At least one compound was matched to its structure with a doubt left.

Conditions: background art statement

SMILES	reduction of non-alcoholic fatty liver disease (simple fatty liver disease, NASH)	sensitivity to insulin
CCc1ccc(CCOc2ccc(CC3SC(=O)NC3=O)cc2)nc1 (stereo not drawn) [pioglitazone]	reduce simple fatty liver disease and NASH	seems to enhance sensitivity to insulin
CN(CCOc1ccc(CC2SC(=O)NC2=O)cc1)c1ccccn1 (stereo not drawn) [rosiglitazone]	failed to significantly reduce	
